According to patent publication US4317770A, “D-amino acid analogs of beta-endorphin” (Hoffmann-La Roche Inc., priority 1977, dated 1982):

Tested on: mice
Assay: analgesic potency in mice, tail-flick method, icv injection
Type: in vivo, mouse
Details: calculated on molar basis using the AD50 of βc-endorphin as 100%
Protocol: The opiate activities of the analogs relative to βc -endorphin were measured in vitro in the guinea pig ileum (Brit. J. Pharmacol. 39, 398 (1970)) and in vivo by icv and iv injections using the tail-flick method (D'Amour and Smith, J. Pharmacol. Exp. Ther. 72,74 (1941). The results are summarized in Tables 2 and 3.
The analgesic properties of β-endorphin and its analogs were also assessed in mice by the tail-flick method of D'Amour and Smith, supra. The peptides, dissolved in saline, were injected either icv in a volume of 5 μl, according to the method described by Haley and McCormick, Brit. J. Pharmacol. 12, 12 (1957) or iv via the tail vein. To evaluate this analgesic response, a control latency (T0) was obtained from the mean of two latencies determined prior to drug injections, and the test latencies (T1) were determined at various times after injection for each animal. "Percent analgesic" was calculated as [(T1 -T0)/[…]]×100, where the cut off time (T2) was 10 sec.

Q: For CN1CC[C@]23c4c5ccc(O)c4O[C@H]2[C@@H](O)C=C[C@H]3[C@H]1C5.O=S(=O)(O)O [Morphine sulfate, reference compound], which “Relative Potency (analgesic potency)” value is on record?
A: 2.9%
